Measured values from US20220177512 (published 2022).

Assay: general procedure: peptide synthesis; Siber resin; NH2-Dpm(4,4′-OPhy) pseudo solid phase protecting group
Conditions: purification step

Row | Substance | step yield (vs cyclic peptide H before filtration of insoluble material) [%] | step yield (vs cyclic peptide I′) [%]
1 | Cl—CH2CO-Tyr(tBu)-Ile-Gln(Trt)-Asn(Trt)-Cys(Mmt)-Pro-Leu-Gly-NH-Siber resin | 70 | –
2 | H-Tyr(tBu)-Ile-Gln(Trt)-Asn(Trt)-Cys(Mmt)-Pro-Leu-Gly-NH-Siber resin | – | 87
